In PubChem BioAssay AID2685 (National Center for Advancing Translational Sciences (NCATS), 2010):
Some of the results follow. Shown are side measurements of this screen, not its main read-out; they come without a call. Compounds called inactive in the main read-out are mostly missing here. Potencies come from curve fits of mixed quality, noted in brackets.

Test: qHTS Assay for Lipid Storage Modulators in Drosophila S3 Cells;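 on cell number change: cells counted by Cell Tracker Red CMTPX staining in the red channel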
Settings: BODIPY lipid droplet fluorescence, 18-24 h; for cell number change: measured here: cell count max response, cells fed with added oleic acid
Procedure, shortened: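 Laser-scanning cytometry quantifies lipid droplet accumulation (500–530 nm total intensity; droplet/cell object ratio) in oleic acid-fed (400 uM added) Drosophila S3 cells treated with a concentration series. 20 uM Triacsin C defined 100% inhibition.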

[1] = measured here: cell number channel AC50, cells fed with added oleic acid
[2] = measured here: lipid fluorescence (Fed channel) AC50, cells fed with added oleic acid

| Compound | cell number change [%] | AC50 [1] | AC50 [2] |
| --- | --- | --- | --- |
| O=C(c1ccc(C(F)(F)F)cc1)C1CCCN(C(=O)c2csnn2)C1 (stereo not given) | 22.6 | – | – |
| COc1ccccc1N1CCN(C2CCCN(C(=O)C3=NN(C)C(=O)CC3)C2)CC1 (stereo not given) | 23.2 | – | – |
| CCOC(=O)C(C)Sc1nc2c([nH]c3ccccc32)c(=O)n1C (stereo not given) | -57.4 | 16.4 µM [falling, single point] | 16.4 µM [falling, single point] |
| Cc1nnc(SCC(=O)Nc2c(C)n(C)n(-c3ccccc3)c2=O)n1Cc1ccccc1 | 28.4 | – | – |
| CSc1ccccc1C(=O)NC1CCCN(c2ccc(C(F)(F)F)cn2)C1 (stereo not given) | 6.12 | – | 6.51 µM [rising, partial curve, poor fit] |
| CCN(C(=O)Cc1c(C(=O)O)n(C)c2ccccc12)c1cc(OC)ccc1OC | – | – | 29.1 µM [falling, single point] |
| O=C(NCc1cccnc1)c1nc(-c2ccc(C(F)(F)F)cc2)no1 | -0.339 | 0.00461 µM [rising, full curve, poor fit] | 32.6 µM [rising, single point] |
| Cc1ccc(CNc2ccc(Cl)cc2[N+](=O)[O-])cc1 | -26.8 | – | 32.6 µM [falling, single point] |
| O=C(Cc1cccs1)N1CCN=C1SCc1cccc(F)c1 | -30 | 4.11 µM [rising, single point] | 1.3 µM [rising, partial curve] |
| CCOC(=O)C1(CCOc2ccccc2)CCN(CC2CC2)CC1 | 26.7 | – | 29.1 µM [rising, single point] |
| COc1ccccc1COCC(O)CN1CCN(S(=O)(=O)c2cccc(F)c2)CC1 (stereo not given) | -4.24 | 1.84 µM [rising, partial curve] | 2.59 µM [rising, partial curve] |
| COc1ccc(CSc2n[nH]c(C)n2)cc1[N+](=O)[O-] | – | – | 18.4 µM [rising, single point] |
| CCC(c1nnnn1Cc1cccs1)N1CCN(c2nc3ccccc3s2)CC1 (stereo not given) | -9 | – | – |
| NC(=O)c1ccc(NC(=O)C2CC(=O)N(c3ccc4c(c3)OCCO4)C2)cc1 (stereo not given) | 26.8 | – | 0.411 µM [rising, full curve] |
| CCC(=O)NNC(=O)CCC(=O)Nc1ccc(C)cc1C | – | 6.51 µM [rising, single point] | 0.651 µM [rising, single point] |
| COCCNC(=O)c1cccc(NC(=O)C2=C(C)OCCS2)c1 | – | 1.64 µM [rising, partial curve, poor fit] | 1.84 µM [rising, single point] |
| CCCNC(=O)c1ccc(CNc2c(N3CCC(C(=O)OCC)CC3)c(=O)c2=O)cc1 | 5.44 | – | – |
| O=C1CC(c2ccccc2)c2c(O)cc(O)cc2O1 (stereo not given) | 38.1 | 29.1 µM [rising, single point] | – |
| CC(C)c1nc(C#N)c(NN)o1 | -2.12 | – | 0.058 µM [falling, full curve] |
| Cc1cccc(/C=N/n2c(-c3cc(-c4ccccc4)n[nH]3)n[nH]c2=S)c1 | -78 | 29.1 µM [falling, partial curve] | 25.9 µM [falling, partial curve] |
| O=C(O)CCC1COc2ccccc2O1 (stereo not given) | – | – | 29.1 µM [falling, single point] |

Nothing new here: entries from further up.

| Compound | cell number change [%] | AC50 [1] | AC50 [2] |
| --- | --- | --- | --- |
| O=C(Cc1cccs1)N1CCN=C1SCc1cccc(F)c1 | -30 | 4.11 µM [rising, single point] | 1.3 µM [rising, partial curve] |
| CCOC(=O)C1(CCOc2ccccc2)CCN(CC2CC2)CC1 | 26.7 | – | 29.1 µM [rising, single point] |
| COc1ccccc1COCC(O)CN1CCN(S(=O)(=O)c2cccc(F)c2)CC1 (stereo not given) | -4.24 | 1.84 µM [rising, partial curve] | 2.59 µM [rising, partial curve] |
| COc1ccc(CSc2n[nH]c(C)n2)cc1[N+](=O)[O-] | – | – | 18.4 µM [rising, single point] |
| CCC(c1nnnn1Cc1cccs1)N1CCN(c2nc3ccccc3s2)CC1 (stereo not given) | -9 | – | – |

Further entries follow.

| Compound | cell number change [%] | AC50 [1] | AC50 [2] |
| --- | --- | --- | --- |
| Cc1cccc(-c2nc(CNC(=O)c3ccco3)cs2)c1 | -26.5 | – | 11.6 µM [falling, single point] |
| O=C1NN(c2ccc(F)cc2)C(=O)/C1=C\C=C\c1ccco1 | -17.3 | – | 0.164 µM [falling, full curve, poor fit] |
| COc1ccc(S(=O)(=O)N(C)CC(=O)NCc2cccnc2)cc1 | -14.2 | – | 0.00461 µM [falling, full curve] |
| CCOc1ccc(C2C(C(=O)c3ccco3)=C(O)C(=O)N2CCN2CCOCC2)cc1 (stereo not given) | 1.91 | – | – |
| O=C(CCC(=O)N(CC(=O)NC1CCCCC1)Cc1ccc(F)cc1)Nc1nccs1 | – | – | 29.1 µM [rising, single point] |
| COc1cc(NS(=O)(=O)c2ccc(NC(=O)CN3C(=O)c4ccccc4C3=O)cc2)ncn1 | -30 | 0.82 µM [falling, full curve] | 3.66 µM [falling, full curve] |
| O=[N+]([O-])c1ccc(CNC2CCCc3ccccc32)cc1 (stereo not given) | -3.57 | – | – |
| CCN1CCN(Cc2ccc(NC(=O)c3ccc(C)c(NC(=O)c4cc(-c5ccc(Br)cc5)n[nH]4)c3)cc2C(F)(F)F)CC1 | -0.106 | – | 9.2 µM [falling, single point] |
| Cc1ccc(Cn2c(Sc3ncccn3)nc3c2c(=O)[nH]c(=O)n3C)cc1 | – | – | 4.11 µM [falling, partial curve] |
| O=C(Nc1ccc2c(c1)CCCN2C(=O)c1cccs1)c1ccccc1 | -8.06 | – | – |
| O=C(NCc1ccc(F)cc1)C1CCCN(S(=O)(=O)c2cccc3nsnc23)C1 (stereo not given) | – | 1.3 µM [rising, partial curve] | 9.2 µM [rising, partial curve] |
| Cc1c(C(=O)C(=O)N2c3ccc(F)cc3CCC2C)c2ccccc2n1C (stereo not given) | -15.1 | – | 18.4 µM [falling, single point] |
| CCC1CCc2c([nH]c3ccccc3c2=O)O1 (stereo not given) | 35.5 | 9.2 µM [rising, partial curve] | – |
| N#CCCN(C1CCCCC1)S(=O)(=O)CCOc1ccccc1 | 11.2 | – | 29.1 µM [rising, single point] |
| CC(C)C(=O)Nc1nnc(CSCc2ccccc2F)s1 | – | 0.58 µM [falling, single point] | – |
| COc1ccc(C(=O)c2c3ccc(C(F)(F)F)cc3[n+]([O-])n2CCCN)cc1 | -24.7 | – | 5.17 µM [falling, partial curve, poor fit] |
| Cc1ccccc1NC(=O)Cc1nc(COC(=O)c2ccc(O)cc2O)cs1 | -45 | 20.6 µM [falling, single point] | 3.26 µM [rising, partial curve] |
| CN(CC(=O)Nc1ccc(N2CCOCC2)cc1)C(=O)c1cc2c(s1)CCCC2 | -20.8 | – | 0.00461 µM [falling, full curve, poor fit] |
| CC(=O)c1cccc(NC(=S)N2CCN(c3ccccn3)CC2)c1 | -8.42 | – | 29.1 µM [falling, single point] |
| Cc1cc(N/N=C/c2ccncc2)nc2ccccc12 | 17.2 | – | 0.112 µM [rising, full curve, poor fit] |
| COc1ccc(Cl)cc1NC(=O)COC(=O)C(CC(C)C)N1C(=O)C2CC=CCC2C1=O (stereo not given) | -31.3 | 16.4 µM [falling, single point] | – |

| Compound | cell number change [%] | AC50 [1] | AC50 [2] |
| --- | --- | --- | --- |
| COc1cc(S(=O)(=O)N2CCN(c3ccccc3F)CC2)ccc1Cl | 280 | 16.4 µM [rising, partial curve] | 3.66 µM [rising, partial curve] |
| COC(=O)c1c(SCC(=O)NC2CCCCC2)[nH]c2ccccc2c1=O | -47.7 | 29.1 µM [falling, single point] | 29.1 µM [falling, single point] |
| COc1ccc(-n2nc(C(=O)NCC(=O)NCCCN3CCN(C)CC3)c3ccccc3c2=O)cc1 | 3.6 | – | 29.1 µM [rising, single point] |
| C/C(=C\C(=O)c1ccccc1)Nc1cccc(O)c1 | 3.39 | – | 16.4 µM [falling, single point] |
| CCOc1ccc(NC(=O)c2ccccc2NC(=O)CN2CCCCCC2)cc1 | -55.4 | 29.1 µM [falling, single point] | – |
| CC(=O)NC(Cc1c[nH]c2ccccc12)C(=O)NCc1ccco1 (stereo not given) | -1.26 | – | 0.206 µM [rising, single point] |
| CC(C)(C)c1ccc(OC(=O)Cn2c(C(F)(F)F)nc3ccccc32)cc1 | – | – | 6.51 µM [falling, full curve] |
| CCCCC(=O)Nc1ccc(F)c(Cl)c1 | -91.6 | 29.1 µM [falling, single point] | 20.6 µM [falling, single point] |
| Cc1cccc2nc(CSc3nc4cc([N+](=O)[O-])ccc4s3)cn12 | 13.3 | – | 0.164 µM [falling, full curve, poor fit] |
| N#CCc1ccc(Oc2ncc(C(F)(F)F)cc2Cl)cc1 | 21.4 | – | – |
| O=C(Nc1cccc(S(=O)(=O)N2CCCC2)c1)c1cccnc1 | -23.5 | – | 29.1 µM [falling, single point] |
| O=C(NCCCc1ccccc1)c1ccc(Br)o1 | 14.5 | 0.731 µM [rising, single point] | – |
| O=C(O)c1ccc(CNC(=O)C23CC4CC(CC(C4)C2)C3)cc1 | 21.4 | – | – |
| CC(=O)Nc1ccc(NC(=O)COC(=O)Cc2cccs2)cc1 | -38 | 1.64 µM [falling, full curve] | 29.1 µM [falling, single point] |
| O=C1OC(c2ccccc2)=NC12CC2c1ccc(Cl)cc1 (stereo not given) | -2.38 | – | 16.4 µM [falling, partial curve] |
| Cc1ccc(-c2nnn(CC(=O)Nc3ccc(S(=O)(=O)N4CCC(C)CC4)cc3)n2)cc1 | -65.3 | 6.51 µM [falling, partial curve] | 8.2 µM [falling, partial curve] |
| COC(=O)[C@@H](Cc1c[nH]c2ccccc12)NC(=O)c1ccc2c(c1)OCO2 | -9.22 | – | – |
| CCC(C)NCC(O)(c1ccc(Cl)cc1)c1ccc(Cl)cc1 (stereo not given) | 22.5 | – | – |
| CCOC(=O)C1CCN(S(=O)(=O)c2ccc(OCC)cc2)CC1 | -1.15 | – | 32.6 µM [rising, single point] |
